Experimental data: article PMC7617804
No constants are given. Whether binding was seen depends on the method and setting. Binding seen in cells or lysates may run through a third protein. Some results given as binding are weak or reduced against the parent protein; the word gives no strength. For some assays here: Where a sequence is shown, tags or fusion partners need not be part of it.

Protein sequences, listed by entry. Tags and fused reporters are not part of them. Lines headed by an entry give the natural chain unless they say otherwise; changes in a name come on top. Chains listed by the source or under a name are the forms on record and can include a tag or linker. Residues count along the entry.
UniProt Q9P0J7: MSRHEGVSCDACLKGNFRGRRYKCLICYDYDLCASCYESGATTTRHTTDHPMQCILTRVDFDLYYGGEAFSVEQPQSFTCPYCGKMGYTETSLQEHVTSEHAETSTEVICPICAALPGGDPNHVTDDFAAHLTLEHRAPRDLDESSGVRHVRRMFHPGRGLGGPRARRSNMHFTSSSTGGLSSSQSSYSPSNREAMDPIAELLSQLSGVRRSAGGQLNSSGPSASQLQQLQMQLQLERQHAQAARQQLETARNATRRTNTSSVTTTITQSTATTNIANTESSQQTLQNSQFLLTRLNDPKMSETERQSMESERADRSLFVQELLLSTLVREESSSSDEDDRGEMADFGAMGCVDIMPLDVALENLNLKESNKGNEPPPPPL
KCMF1ΔCTD-TEV-3xFLAG (lacking aa 299-381): residues 1-298 of Q9P0J7
KCMF1ΔNTD-TEV-3xFLAG (lacking aa 1-139): residues 140-381 of Q9P0J7
KCMF1ΔMLD-TEV-3xFLAG (lacking aa 196-263) (Q9P0J7, form named): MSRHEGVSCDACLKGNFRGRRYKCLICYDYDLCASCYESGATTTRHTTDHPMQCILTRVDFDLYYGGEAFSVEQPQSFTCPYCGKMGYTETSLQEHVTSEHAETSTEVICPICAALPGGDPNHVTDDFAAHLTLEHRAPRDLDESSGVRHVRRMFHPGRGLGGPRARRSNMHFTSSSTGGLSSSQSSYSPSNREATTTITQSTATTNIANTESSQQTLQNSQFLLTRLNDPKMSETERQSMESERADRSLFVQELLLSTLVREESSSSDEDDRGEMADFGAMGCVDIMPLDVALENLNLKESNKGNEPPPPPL
UniProt P28070: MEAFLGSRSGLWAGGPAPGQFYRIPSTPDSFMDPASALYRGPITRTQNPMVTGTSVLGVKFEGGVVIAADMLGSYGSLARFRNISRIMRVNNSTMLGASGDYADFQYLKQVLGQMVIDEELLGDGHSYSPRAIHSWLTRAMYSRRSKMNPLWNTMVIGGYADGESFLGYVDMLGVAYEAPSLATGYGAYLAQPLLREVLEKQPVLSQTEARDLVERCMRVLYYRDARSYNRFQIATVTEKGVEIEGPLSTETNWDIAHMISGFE
UniProt P49721: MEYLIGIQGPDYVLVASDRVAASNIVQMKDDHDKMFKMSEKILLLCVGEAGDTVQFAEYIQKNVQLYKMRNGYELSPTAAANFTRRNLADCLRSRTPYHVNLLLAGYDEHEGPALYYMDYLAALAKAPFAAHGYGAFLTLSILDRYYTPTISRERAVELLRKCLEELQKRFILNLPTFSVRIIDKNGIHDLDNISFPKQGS
UniProt P20618: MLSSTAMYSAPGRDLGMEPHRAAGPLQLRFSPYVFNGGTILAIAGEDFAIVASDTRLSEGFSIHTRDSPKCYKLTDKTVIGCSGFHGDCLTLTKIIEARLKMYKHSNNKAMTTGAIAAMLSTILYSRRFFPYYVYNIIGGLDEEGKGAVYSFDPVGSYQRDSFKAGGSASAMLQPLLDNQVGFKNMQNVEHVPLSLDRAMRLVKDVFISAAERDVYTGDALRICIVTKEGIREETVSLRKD
UniProt Q5T4S7: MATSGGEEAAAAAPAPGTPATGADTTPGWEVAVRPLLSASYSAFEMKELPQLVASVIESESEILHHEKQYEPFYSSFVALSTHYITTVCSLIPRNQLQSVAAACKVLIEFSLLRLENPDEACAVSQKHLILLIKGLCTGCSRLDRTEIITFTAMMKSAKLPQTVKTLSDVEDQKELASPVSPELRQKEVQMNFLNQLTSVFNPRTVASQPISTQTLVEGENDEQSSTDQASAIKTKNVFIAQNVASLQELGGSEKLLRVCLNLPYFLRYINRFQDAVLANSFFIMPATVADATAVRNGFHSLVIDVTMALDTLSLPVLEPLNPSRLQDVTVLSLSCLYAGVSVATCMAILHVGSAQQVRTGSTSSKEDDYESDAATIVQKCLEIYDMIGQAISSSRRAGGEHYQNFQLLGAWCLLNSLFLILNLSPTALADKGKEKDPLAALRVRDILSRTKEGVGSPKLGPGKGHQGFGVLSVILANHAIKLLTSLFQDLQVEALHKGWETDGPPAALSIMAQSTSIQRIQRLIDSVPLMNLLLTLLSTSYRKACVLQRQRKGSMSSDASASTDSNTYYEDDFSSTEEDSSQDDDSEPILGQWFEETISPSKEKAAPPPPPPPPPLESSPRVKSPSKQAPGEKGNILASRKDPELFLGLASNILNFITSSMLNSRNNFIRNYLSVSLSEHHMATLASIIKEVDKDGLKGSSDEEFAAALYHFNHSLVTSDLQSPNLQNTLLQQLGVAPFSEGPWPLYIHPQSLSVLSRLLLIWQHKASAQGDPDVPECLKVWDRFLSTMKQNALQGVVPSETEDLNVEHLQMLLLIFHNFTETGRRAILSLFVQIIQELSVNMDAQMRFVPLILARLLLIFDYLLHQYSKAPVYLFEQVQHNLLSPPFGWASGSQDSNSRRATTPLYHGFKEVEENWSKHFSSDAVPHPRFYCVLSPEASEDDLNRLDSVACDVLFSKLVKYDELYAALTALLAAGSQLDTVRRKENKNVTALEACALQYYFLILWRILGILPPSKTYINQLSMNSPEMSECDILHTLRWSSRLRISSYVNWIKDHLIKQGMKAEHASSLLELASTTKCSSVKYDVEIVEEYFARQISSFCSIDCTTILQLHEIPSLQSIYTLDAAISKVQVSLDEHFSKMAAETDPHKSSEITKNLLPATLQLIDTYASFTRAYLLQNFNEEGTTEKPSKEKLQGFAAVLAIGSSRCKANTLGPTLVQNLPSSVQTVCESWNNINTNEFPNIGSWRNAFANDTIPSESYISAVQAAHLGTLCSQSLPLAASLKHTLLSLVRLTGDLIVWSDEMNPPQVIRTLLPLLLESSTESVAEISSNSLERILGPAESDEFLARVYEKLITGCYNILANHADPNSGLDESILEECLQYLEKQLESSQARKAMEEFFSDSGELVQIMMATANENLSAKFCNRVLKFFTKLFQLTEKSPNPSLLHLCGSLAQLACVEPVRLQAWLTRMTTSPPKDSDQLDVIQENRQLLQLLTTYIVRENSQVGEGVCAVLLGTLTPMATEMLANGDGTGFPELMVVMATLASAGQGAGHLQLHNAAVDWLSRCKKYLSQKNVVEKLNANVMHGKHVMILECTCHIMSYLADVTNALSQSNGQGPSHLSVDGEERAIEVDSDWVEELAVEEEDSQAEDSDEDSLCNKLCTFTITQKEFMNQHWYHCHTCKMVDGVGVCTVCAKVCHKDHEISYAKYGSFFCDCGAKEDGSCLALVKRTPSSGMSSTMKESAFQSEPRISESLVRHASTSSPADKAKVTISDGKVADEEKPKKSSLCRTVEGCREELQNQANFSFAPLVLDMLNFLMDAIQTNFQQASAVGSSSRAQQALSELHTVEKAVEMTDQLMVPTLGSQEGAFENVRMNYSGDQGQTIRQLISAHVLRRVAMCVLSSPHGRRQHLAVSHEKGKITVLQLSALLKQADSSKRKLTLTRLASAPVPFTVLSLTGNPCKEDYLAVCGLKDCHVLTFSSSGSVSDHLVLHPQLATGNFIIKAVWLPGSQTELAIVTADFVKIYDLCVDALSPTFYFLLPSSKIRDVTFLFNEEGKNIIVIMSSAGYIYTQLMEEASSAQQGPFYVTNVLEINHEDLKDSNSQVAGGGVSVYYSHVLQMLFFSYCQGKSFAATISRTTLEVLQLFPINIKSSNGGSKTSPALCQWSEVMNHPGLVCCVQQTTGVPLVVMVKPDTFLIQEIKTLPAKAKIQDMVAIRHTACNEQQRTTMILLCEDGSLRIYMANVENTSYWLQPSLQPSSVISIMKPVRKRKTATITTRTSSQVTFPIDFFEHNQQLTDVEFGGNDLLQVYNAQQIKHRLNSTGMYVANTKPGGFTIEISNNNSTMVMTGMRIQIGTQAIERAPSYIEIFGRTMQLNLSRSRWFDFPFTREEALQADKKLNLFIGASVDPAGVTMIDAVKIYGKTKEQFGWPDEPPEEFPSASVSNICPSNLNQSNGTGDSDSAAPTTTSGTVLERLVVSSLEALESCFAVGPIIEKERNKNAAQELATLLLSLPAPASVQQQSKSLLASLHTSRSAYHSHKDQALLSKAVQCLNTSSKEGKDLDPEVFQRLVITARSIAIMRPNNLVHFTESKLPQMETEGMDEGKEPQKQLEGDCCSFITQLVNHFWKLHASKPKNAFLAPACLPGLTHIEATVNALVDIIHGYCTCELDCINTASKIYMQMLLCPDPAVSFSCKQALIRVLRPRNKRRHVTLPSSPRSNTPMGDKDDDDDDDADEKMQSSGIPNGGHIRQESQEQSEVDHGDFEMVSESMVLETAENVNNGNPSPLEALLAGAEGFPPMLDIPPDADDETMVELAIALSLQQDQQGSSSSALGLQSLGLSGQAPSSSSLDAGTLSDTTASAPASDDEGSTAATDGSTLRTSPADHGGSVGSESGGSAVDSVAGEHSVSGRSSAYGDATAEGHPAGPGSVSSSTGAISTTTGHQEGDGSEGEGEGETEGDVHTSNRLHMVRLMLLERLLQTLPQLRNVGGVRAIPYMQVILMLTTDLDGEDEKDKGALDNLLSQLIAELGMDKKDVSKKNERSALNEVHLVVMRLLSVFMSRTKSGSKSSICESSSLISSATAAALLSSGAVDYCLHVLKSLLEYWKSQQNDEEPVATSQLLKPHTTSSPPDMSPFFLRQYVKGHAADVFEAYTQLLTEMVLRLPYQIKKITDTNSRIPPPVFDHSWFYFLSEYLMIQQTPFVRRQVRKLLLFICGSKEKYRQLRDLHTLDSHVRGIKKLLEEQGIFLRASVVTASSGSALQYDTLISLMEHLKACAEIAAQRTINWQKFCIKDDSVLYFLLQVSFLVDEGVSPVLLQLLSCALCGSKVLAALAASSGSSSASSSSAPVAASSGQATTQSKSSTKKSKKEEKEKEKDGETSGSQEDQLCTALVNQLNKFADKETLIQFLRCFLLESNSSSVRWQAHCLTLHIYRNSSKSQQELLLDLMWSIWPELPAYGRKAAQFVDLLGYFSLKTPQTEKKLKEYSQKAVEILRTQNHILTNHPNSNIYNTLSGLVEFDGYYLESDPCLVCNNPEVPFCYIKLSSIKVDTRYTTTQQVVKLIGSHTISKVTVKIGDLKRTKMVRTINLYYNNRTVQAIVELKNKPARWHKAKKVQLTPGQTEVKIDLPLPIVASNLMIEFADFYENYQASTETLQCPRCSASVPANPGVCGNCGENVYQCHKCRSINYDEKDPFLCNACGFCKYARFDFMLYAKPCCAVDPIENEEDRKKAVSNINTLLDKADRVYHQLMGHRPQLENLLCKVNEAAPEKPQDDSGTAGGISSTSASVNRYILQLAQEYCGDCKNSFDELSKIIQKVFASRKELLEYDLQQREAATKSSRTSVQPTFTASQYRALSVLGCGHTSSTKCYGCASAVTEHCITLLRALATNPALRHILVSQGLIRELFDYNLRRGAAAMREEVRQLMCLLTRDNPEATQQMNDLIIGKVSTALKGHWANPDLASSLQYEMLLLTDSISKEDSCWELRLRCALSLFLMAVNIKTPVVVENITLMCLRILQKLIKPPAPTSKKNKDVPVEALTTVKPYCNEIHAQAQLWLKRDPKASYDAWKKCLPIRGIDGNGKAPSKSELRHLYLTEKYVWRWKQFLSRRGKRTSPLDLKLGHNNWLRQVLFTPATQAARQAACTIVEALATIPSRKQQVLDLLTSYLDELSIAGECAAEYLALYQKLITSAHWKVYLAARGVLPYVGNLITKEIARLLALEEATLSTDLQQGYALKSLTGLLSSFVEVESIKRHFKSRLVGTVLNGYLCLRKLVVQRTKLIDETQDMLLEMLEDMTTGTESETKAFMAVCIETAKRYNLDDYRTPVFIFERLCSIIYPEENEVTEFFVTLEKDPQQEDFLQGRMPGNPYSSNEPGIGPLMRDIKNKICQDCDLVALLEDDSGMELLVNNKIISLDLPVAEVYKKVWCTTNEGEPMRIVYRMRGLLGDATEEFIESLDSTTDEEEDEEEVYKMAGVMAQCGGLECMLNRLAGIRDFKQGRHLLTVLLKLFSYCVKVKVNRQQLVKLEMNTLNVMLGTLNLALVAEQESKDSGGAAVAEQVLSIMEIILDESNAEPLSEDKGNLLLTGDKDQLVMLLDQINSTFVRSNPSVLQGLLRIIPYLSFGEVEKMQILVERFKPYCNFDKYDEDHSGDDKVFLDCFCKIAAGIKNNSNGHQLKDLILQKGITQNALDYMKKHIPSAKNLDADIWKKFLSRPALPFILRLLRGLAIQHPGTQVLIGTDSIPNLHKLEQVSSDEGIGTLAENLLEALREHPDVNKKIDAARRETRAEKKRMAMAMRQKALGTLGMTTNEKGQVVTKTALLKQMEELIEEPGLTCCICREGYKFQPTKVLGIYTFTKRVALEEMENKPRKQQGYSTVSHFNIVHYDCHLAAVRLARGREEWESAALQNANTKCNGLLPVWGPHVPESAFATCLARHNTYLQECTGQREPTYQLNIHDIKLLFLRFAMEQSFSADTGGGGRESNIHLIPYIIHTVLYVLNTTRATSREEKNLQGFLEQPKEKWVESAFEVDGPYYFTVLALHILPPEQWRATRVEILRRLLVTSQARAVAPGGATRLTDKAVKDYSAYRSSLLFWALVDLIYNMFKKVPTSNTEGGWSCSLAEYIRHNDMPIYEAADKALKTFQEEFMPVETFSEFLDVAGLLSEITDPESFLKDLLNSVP

What was measured:
[1] = molecular target: T1, CCT4-TEV-3xFLAG (UniProt P50991); test: co-IP; 3xFLAG-tagged PSMB or CCT subunits overexpressed in HEK293T cells (CCT4-3xFLAG also after control, HERC2, KCMF1 or UBR4 siRNA); digitonin lysate in native IP buffer; anti-FLAG M2 affinity gel, 4°C; immunoblot for endogenous proteins
T1 sequence: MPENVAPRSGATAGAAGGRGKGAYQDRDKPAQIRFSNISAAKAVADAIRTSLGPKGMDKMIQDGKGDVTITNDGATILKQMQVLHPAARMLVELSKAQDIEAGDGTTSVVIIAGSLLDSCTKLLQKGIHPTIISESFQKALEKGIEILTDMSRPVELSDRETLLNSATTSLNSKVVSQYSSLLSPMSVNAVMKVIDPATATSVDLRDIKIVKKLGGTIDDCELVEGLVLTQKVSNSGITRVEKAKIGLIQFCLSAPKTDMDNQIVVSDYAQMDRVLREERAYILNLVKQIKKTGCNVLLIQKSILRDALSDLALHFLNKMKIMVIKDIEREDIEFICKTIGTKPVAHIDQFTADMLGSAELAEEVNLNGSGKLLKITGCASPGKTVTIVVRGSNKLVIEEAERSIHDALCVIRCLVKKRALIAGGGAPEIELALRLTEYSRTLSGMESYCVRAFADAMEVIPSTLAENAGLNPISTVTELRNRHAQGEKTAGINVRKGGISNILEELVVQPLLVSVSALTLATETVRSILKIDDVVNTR

[2] = molecular target: endogenous KCMF1 of human cultured cells (human (endogenous in HEK293T and Flp-In T-REx 293)) (UniProt Q9P0J7); test: co-sedimentation; digitonin cytosolic lysates of Flp-in TREx cells on a 5-25% sucrose gradient in PSB, 55000 rpm, 45 min, 4°C; fractions immunoblotted
[3] = molecular target: KCMF1-TEV-3xFLAG (UniProt Q9P0J7); test: co-IP; KCMF1-3xFLAG constructs expressed in KCMF1 KO TREx 293 cells; digitonin lysate in native IP buffer (50 mM HEPES-KOH, 100 mM KAc, 2 mM Mg(Ac)2, 0.01% digitonin); anti-FLAG M2 affinity gel, 4°C; immunoblot
[4] = molecular target: KCMF1ΔCTD-TEV-3xFLAG (lacking aa 299-381) (UniProt Q9P0J7); test: as above
[5] = molecular target: KCMF1ΔNTD-TEV-3xFLAG (lacking aa 1-139) (UniProt Q9P0J7); test: as above
[6] = molecular target: KCMF1ΔMLD-TEV-3xFLAG (lacking aa 196-263) (UniProt Q9P0J7); test: as above
[7] = molecular target: CCT8-TEV-3xFLAG (UniProt P50990); test: co-IP; 3xFLAG-tagged PSMB or CCT subunits overexpressed in HEK293T cells (CCT4-3xFLAG also after control, HERC2, KCMF1 or UBR4 siRNA); digitonin lysate in native IP buffer; anti-FLAG M2 affinity gel, 4°C; immunoblot for endogenous proteins
[8] = molecular target: PSMB3-3xFLAG (UniProt P49720); test: co-IP; 3xFLAG-tagged proteins translated in rabbit reticulocyte lysate, diluted in PSB, anti-FLAG M2 affinity gel 60 min at 4°C under native conditions; immunoblot for endogenous proteins of the lysate
[9] = molecular target: PSMB4-3xFLAG (UniProt P28070); test: as above
[10] = molecular target: PSMB2-3xFLAG (UniProt P49721); test: as above
[11] = molecular target: PSMB5-3xFLAG (UniProt P28074); test: as above
[12] = molecular target: PSMB6-3xFLAG (UniProt P28072); test: as above
[13] = molecular target: PSMB1-3xFLAG (UniProt P20618); test: as above
[14] = molecular target: PSMB7-3xFLAG (UniProt Q99436); test: as above

For “endogenous HERC2 of HEK293T cells (from UniProt O95714 1-4834)”, the binding [1] was “binds”.
“endogenous UBR4 of human cultured cells (from UniProt Q5T4S7 1-5183)” was tested, and the binding [2] was “binds”, the binding [3] was “binds” and the binding [4] was “binds”. The binding [5] was “binds”, the binding [6] was “binds” and the binding [1] was “binds”. For the same substance, the binding [7] was “binds weakly”.
For “endogenous KCMF1 of human cultured cells (from UniProt Q9P0J7 1-381)”, the binding [1] was “binds” and the binding [7] was “binds weakly”.
With “endogenous UBR4 of rabbit reticulocyte lysate (from UniProt G1SCY3 1-5180)” the binding [8] was “binds”, the binding [9] was “binds” and the binding [10] was “binds”. For the same substance, the binding [11] was “binds”, the binding [12] was “binds” and the binding [13] was “binds”. For the same substance, the binding [14] was “binds”.
